According to the supplement of paper PMC8728848:
The other results are listed elsewhere or left out.

Tests used:
Test in all cases: glycan array binding signal (z-score within array); higher = stronger binding
Conditions in all cases: glycan notation: IUPAC condensed, linker removed
[1] = molecular target: Fuc(a1-2)[Gal(a1-3)]Gal(b1-4)GlcNAc(b1-2)Man(a1-3)[Fuc(a1-2)[Gal(a1-3)]Gal(b1-4)GlcNAc(b1-2)Man(a1-6)]Man(b1-4)GlcNAc(b1-4)GlcNAc
Procedure, shortened: (§1)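 The Consortium for Functional Glycomics database supplied 3228 glycan arrays, of which those lacking an available protein sequence were dropped. The binding signal, a within-array Z-score, was averaged across arrays of the same protein sequence and across linkers. Negative scores can be read as non-binding.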

[2] = molecular target: Fuc(a1-2)[Gal(a1-3)]Gal(b1-4)GlcNAc(b1-2)Man(a1-3)[Fuc(a1-2)[Gal(a1-3)]Gal(b1-4)GlcNAc(b1-2)Man(a1-6)]Man(b1-4)GlcNAc(b1-4)[Fuc(a1-6)]GlcNAc
Procedure, shortened: as §1

[3] = molecular target: Fuc(a1-2)[Gal(a1-3)]Gal(b1-4)GlcNAc(b1-3)GalNAc
Procedure, shortened: as §1

[4] = molecular target: Fuc(a1-2)[Gal(a1-3)]Gal(b1-4)GlcNAc(b1-6)GalNAc
Procedure, shortened: as §1

[5] = molecular target: Fuc(a1-2)[Gal(a1-3)]Gal(b1-4)[Fuc(a1-3)]Glc
Procedure, shortened: as §1

[6] = molecular target: Fuc(a1-2)[Gal(a1-3)]Gal(b1-4)[Fuc(a1-3)]GlcNAc
Procedure, shortened: as §1

[7] = molecular target: Fuc(a1-2)[Gal(a1-3)]Gal(b1-4)[Fuc(a1-3)]GlcNAc(b1-3)GalNAc
Procedure, shortened: as §1

[8] = molecular target: Fuc(a1-2)[Gal(a1-4)]Gal(b1-4)GlcNAc
Procedure, shortened: as §1

[9] = molecular target: Fuc(a1-2)[GalNAc(a1-3)]Gal
Procedure, shortened: as §1

[10] = molecular target: Fuc(a1-2)[GalNAc(a1-3)]Gal(b1-3)GalNAc(a1-3)[Fuc(a1-2)]Gal(b1-4)GlcNAc
Procedure, shortened: as §1

[11] = molecular target: Fuc(a1-2)[GalNAc(a1-3)]Gal(b1-3)GalNAc(b1-3)Gal(a1-4)Gal(b1-4)Glc
Procedure, shortened: as §1

[12] = molecular target: Fuc(a1-2)[GalNAc(a1-3)]Gal(b1-3)GlcNAc
Procedure, shortened: as §1

[13] = molecular target: Fuc(a1-2)[GalNAc(a1-3)]Gal(b1-3)GlcNAc(b1-2)Man(a1-3)[Fuc(a1-2)[GalNAc(a1-3)]Gal(b1-3)GlcNAc(b1-2)Man(a1-6)]Man(b1-4)GlcNAc(b1-4)GlcNAc
Procedure, shortened: as §1

[14] = molecular target: Fuc(a1-2)[GalNAc(a1-3)]Gal(b1-3)GlcNAc(b1-2)Man(a1-3)[Fuc(a1-2)[GalNAc(a1-3)]Gal(b1-3)GlcNAc(b1-2)Man(a1-6)]Man(b1-4)GlcNAc(b1-4)[Fuc(a1-6)]GlcNAc
Procedure, shortened: as §1

[15] = molecular target: Fuc(a1-2)[GalNAc(a1-3)]Gal(b1-3)GlcNAc(b1-3)GalNAc
Procedure, shortened: as §1

[16] = molecular target: Fuc(a1-2)[GalNAc(a1-3)]Gal(b1-3)GlcNAc(b1-6)GalNAc
Procedure, shortened: as §1

[17] = molecular target: Fuc(a1-2)[GalNAc(a1-3)]Gal(b1-4)Glc
Procedure, shortened: as §1

[18] = molecular target: Fuc(a1-2)[GalNAc(a1-3)]Gal(b1-4)GlcNAc
Procedure, shortened: as §1

[19] = molecular target: Fuc(a1-2)[GalNAc(a1-3)]Gal(b1-4)GlcNAc(b1-2)Man
Procedure, shortened: as §1

[20] = molecular target: Fuc(a1-2)[GalNAc(a1-3)]Gal(b1-4)GlcNAc(b1-2)Man(a1-3)[Fuc(a1-2)[GalNAc(a1-3)]Gal(b1-4)GlcNAc(b1-2)Man(a1-6)]Man(b1-4)GlcNAc(b1-4)GlcNAc
Procedure, shortened: as §1

[21] = molecular target: Fuc(a1-2)[GalNAc(a1-3)]Gal(b1-4)GlcNAc(b1-2)Man(a1-3)[Fuc(a1-2)[GalNAc(a1-3)]Gal(b1-4)GlcNAc(b1-2)Man(a1-6)]Man(b1-4)GlcNAc(b1-4)[Fuc(a1-6)]GlcNAc
Procedure, shortened: as §1

[22] = molecular target: Fuc(a1-2)[GalNAc(a1-3)]Gal(b1-4)GlcNAc(b1-3)Gal(b1-4)GlcNAc
Procedure, shortened: as §1

[23] = molecular target: Fuc(a1-2)[GalNAc(a1-3)]Gal(b1-4)GlcNAc(b1-3)Gal(b1-4)GlcNAc(b1-3)Gal(b1-4)GlcNAc
Procedure, shortened: as §1

[24] = molecular target: Fuc(a1-2)[GalNAc(a1-3)]Gal(b1-4)GlcNAc(b1-3)GalNAc
Procedure, shortened: as §1

[25] = molecular target: Fuc(a1-2)[GalNAc(a1-3)]Gal(b1-4)GlcNAc(b1-3)[Fuc(a1-2)[GalNAc(a1-3)]Gal(b1-4)GlcNAc(b1-6)]GalNAc
Procedure, shortened: as §1

[26] = molecular target: Fuc(a1-2)[GalNAc(a1-3)]Gal(b1-4)GlcNAc(b1-6)GalNAc
Procedure, shortened: as §1

[27] = molecular target: Fuc(a1-2)[GalNAc(a1-3)]Gal(b1-4)[Fuc(a1-3)]GlcNAc
Procedure, shortened: as §1

[28] = molecular target: Fuc(a1-2)[GalNAc(a1-3)]Gal(b1-4)[Fuc(a1-3)]GlcNAc(b1-3)GalNAc
Procedure, shortened: as §1

[29] = molecular target: Fuc(a1-2)[GalNAc(a1-4)]Gal(b1-4)GlcNAc
Procedure, shortened: as §1

[30] = molecular target: Fuc(a1-2)[GalNAc(b1-3)]Gal
Procedure, shortened: as §1

Fuc(a1-3)GlcNAc = molecular target: Fuc(a1-3)GlcNAc
Procedure, shortened: as §1

[31] = molecular target: Fuc(a1-3)[Gal(b1-4)]Glc6S
Procedure, shortened: as §1

[32] = molecular target: Fuc(a1-3)[Gal(b1-4)]GlcNAc
Procedure, shortened: as §1

[33] = molecular target: Fuc(a1-3)[Gal(b1-4)]GlcNAc(b1-2)Man
Procedure, shortened: as §1

[34] = molecular target: Fuc(a1-3)[Gal(b1-4)]GlcNAc(b1-2)Man(a1-3)[Fuc(a1-3)[Gal(b1-4)]GlcNAc(b1-2)Man(a1-6)]Man(b1-4)GlcNAc(b1-4)GlcNAc
Procedure, shortened: as §1

[35] = molecular target: Fuc(a1-3)[Gal(b1-4)]GlcNAc(b1-2)Man(a1-3)[Fuc(a1-3)[Gal(b1-4)]GlcNAc(b1-2)Man(a1-6)]Man(b1-4)GlcNAc(b1-4)[Fuc(a1-6)]GlcNAc
Procedure, shortened: as §1

[36] = molecular target: Fuc(a1-3)[Gal(b1-4)]GlcNAc(b1-3)Gal(b1-3)[Fuc(a1-4)]GlcNAc
Procedure, shortened: as §1

[37] = molecular target: Fuc(a1-3)[Gal(b1-4)]GlcNAc(b1-3)GalNAc
Procedure, shortened: as §1

[38] = molecular target: Fuc(a1-3)[Gal(b1-4)]GlcNAc(b1-4)Gal(b1-4)[Fuc(a1-3)]GlcNAc
Procedure, shortened: as §1

[39] = molecular target: Fuc(a1-3)[Gal(b1-4)]GlcNAc(b1-4)Gal(b1-4)[Fuc(a1-3)]GlcNAc(b1-4)Gal(b1-4)[Fuc(a1-3)]GlcNAc
Procedure, shortened: as §1

[40] = molecular target: Fuc(a1-3)[Gal(b1-4)]GlcNAc(b1-6)GalNAc
Procedure, shortened: as §1

[41] = molecular target: Fuc(a1-3)[Gal(b1-4)]GlcNAc(b1-6)[Gal(b1-3)GlcNAc(b1-3)]Gal(b1-4)Glc
Procedure, shortened: as §1

[42] = molecular target: Fuc(a1-3)[Gal(b1-4)]GlcNAc6S
Procedure, shortened: as §1

[43] = molecular target: Fuc(a1-3)[Gal3S(b1-4)]Glc
Procedure, shortened: as §1

[44] = molecular target: Fuc(a1-3)[Gal3S(b1-4)]GlcNAc
Procedure, shortened: as §1

B1: Tp0751, 83732 (protein)
chain: MSYYHHHHHHLESTSLYKKAGFQHGHVPPRRIPPHDTFGALPTAALPSNARDTAAHPSDTADNTSGSSTTTDPRSHGNAPPAPVGGAAQTHTQPPVQTAMRIALWNRATHGEQGALQHLLAGLWIQTEISPNSGDIHPLLFFDREHAEITFSRASVQEIFLVDSAHTHRKTVSFLTRNTAISSIRRRLEVTFESHEVIHVRAVEDVARLKIGSTSMWDGQYTRYHAGPASAPSP
- glycan array binding signal (z-score) [1]: -0.106
- glycan array binding signal (z-score) [2]: -0.276
- glycan array binding signal (z-score) [3]: -0.513
- glycan array binding signal (z-score) [4]: 1.24
- glycan array binding signal (z-score) [5]: -0.678
- glycan array binding signal (z-score) [6]: 0.858
- glycan array binding signal (z-score) [7]: 0.003
- glycan array binding signal (z-score) [8]: -0.764
- glycan array binding signal (z-score) [9]: -0.744
- glycan array binding signal (z-score) [10]: -0.003
- glycan array binding signal (z-score) [11]: -0.189
- glycan array binding signal (z-score) [12]: -0.672
- glycan array binding signal (z-score) [13]: -0.049
- glycan array binding signal (z-score) [14]: -0.442
- glycan array binding signal (z-score) [15]: -0.126
- glycan array binding signal (z-score) [16]: -0.716
- glycan array binding signal (z-score) [17]: -0.788
- glycan array binding signal (z-score) [18]: -0.68
- glycan array binding signal (z-score) [19]: -0.053
- glycan array binding signal (z-score) [20]: 0.638
- glycan array binding signal (z-score) [21]: -0.219
- glycan array binding signal (z-score) [22]: -0.247
- glycan array binding signal (z-score) [23]: -0.232
- glycan array binding signal (z-score) [24]: -0.407
- glycan array binding signal (z-score) [25]: 0.582
- glycan array binding signal (z-score) [26]: -0.13
- glycan array binding signal (z-score) [27]: 0.025
- glycan array binding signal (z-score) [28]: -0.254
- glycan array binding signal (z-score) [29]: -0.599
- glycan array binding signal (z-score) [30]: -0.428
- glycan array binding signal (z-score) (Fuc(a1-3)GlcNAc): 0.648
- glycan array binding signal (z-score) [31]: -0.281
- glycan array binding signal (z-score) [32]: -0.124
- glycan array binding signal (z-score) [33]: 0.107
- glycan array binding signal (z-score) [34]: 0.837
- glycan array binding signal (z-score) [35]: -0.382
- glycan array binding signal (z-score) [36]: -0.322
- glycan array binding signal (z-score) [37]: -0.708
- glycan array binding signal (z-score) [38]: 0.073
- glycan array binding signal (z-score) [39]: -0.247
- glycan array binding signal (z-score) [40]: -0.015
- glycan array binding signal (z-score) [41]: 0.413
- glycan array binding signal (z-score) [42]: 0.149
- glycan array binding signal (z-score) [43]: -0.341
- glycan array binding signal (z-score) [44]: -0.443
